No constants are given. Whether binding was seen depends on the method and setting. In cells and extracts the contact can be indirect. Binding calls can cover weak binding; strength is not graded here.
Columns and labels:
[1] = biological target: T1, BAM1-RFP (BARELY ANY MERISTEM 1) (UniProt O49545); test: co-IP
T1 sequence: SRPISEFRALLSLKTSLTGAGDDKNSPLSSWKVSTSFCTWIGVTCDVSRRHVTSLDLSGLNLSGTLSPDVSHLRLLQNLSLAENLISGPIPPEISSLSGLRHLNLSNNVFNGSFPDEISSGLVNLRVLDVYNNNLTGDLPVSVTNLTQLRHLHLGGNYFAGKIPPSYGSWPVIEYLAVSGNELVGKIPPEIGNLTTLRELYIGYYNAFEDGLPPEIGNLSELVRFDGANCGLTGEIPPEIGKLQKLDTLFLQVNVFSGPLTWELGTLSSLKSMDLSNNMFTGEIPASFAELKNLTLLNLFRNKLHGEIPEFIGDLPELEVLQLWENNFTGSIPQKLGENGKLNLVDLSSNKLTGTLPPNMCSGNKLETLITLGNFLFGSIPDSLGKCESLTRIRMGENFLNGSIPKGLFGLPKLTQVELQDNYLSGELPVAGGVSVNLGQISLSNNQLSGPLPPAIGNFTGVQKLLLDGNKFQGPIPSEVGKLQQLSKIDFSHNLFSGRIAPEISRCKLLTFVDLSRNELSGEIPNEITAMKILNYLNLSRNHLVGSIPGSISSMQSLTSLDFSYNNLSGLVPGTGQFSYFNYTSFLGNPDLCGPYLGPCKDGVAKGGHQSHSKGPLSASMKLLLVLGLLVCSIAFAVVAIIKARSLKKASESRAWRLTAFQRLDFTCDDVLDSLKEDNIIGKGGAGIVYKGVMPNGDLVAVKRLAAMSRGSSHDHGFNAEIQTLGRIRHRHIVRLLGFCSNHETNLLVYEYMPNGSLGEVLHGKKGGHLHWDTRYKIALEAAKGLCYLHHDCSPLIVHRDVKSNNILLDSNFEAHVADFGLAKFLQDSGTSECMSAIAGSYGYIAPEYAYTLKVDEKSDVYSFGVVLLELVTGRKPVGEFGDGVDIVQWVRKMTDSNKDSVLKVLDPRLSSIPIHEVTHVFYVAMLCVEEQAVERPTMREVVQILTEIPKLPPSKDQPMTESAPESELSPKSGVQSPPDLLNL

[2] = biological target: T2, CLV1-RFP (CLAVATA 1) (UniProt Q9SYQ8); test: co-IP
T2 sequence: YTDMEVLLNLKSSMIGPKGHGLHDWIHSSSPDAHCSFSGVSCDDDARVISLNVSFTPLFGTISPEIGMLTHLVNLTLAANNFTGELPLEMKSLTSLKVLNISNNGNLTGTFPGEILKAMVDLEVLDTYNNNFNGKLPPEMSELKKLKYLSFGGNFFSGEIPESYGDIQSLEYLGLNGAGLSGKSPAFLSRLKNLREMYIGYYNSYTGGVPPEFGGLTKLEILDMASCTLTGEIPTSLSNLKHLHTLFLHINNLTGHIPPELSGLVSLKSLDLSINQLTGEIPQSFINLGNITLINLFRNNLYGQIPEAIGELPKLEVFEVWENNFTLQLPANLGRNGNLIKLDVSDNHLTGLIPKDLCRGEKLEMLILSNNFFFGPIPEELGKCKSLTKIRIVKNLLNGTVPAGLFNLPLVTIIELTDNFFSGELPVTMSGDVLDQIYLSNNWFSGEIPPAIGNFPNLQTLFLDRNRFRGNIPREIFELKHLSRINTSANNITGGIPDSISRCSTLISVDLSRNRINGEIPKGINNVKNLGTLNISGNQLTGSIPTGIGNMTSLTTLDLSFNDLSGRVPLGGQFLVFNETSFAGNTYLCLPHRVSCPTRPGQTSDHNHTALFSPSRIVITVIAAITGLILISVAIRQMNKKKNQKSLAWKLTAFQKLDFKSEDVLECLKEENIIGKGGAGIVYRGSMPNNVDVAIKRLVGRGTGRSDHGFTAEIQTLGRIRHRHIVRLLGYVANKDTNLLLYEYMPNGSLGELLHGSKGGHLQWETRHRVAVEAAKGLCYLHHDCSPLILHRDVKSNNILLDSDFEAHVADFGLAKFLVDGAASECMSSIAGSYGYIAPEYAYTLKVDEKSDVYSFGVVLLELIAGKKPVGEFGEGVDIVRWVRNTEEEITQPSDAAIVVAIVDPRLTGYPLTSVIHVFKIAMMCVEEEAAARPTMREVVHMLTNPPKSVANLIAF

[3] = biological target: T1, BAM1-RFP (BARELY ANY MERISTEM 1); test: FRET or BRET
[4] = biological target: T2, CLV1-RFP (CLAVATA 1); test: FRET or BRET

Measured: binding

C4-GFP (C4 from TYLCV)
binds: all assays above

From publication doi:10.1101/2022.12.16.520777
